{"source": "PubChem BioAssay AID1224828, NIAID | 2016", "assay": "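Knock-downs that increase or decrease LPS-induced p65 nuclear translocation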 (primary screen)", "cell system": "mouse RAW264.7 G9 macrophage reporter cells (GFP-p65, Tnf promoter-mCherry)", "knock-down reagent": "siRNA pool against mouse genes, 100 nM", "time to read-out": "2 days siRNA transfection, then 40 min LPS before fixation", "conditions": "LPS (Salmonella minnesota R595) at 10 ng/ml", "measurement": "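Microscopy ratio of nuclear to perinuclear-ring GFP-p65 signal, scaled to the plate median; gene score is the average of two replicate robust z-scores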", "scale": "p65 translocation robust z-score: higher = more nuclear NF-kappaB p65 after LPS than the plate median; nuclear/cytoplasmic p65 ratio: higher = more nuclear NF-kappaB p65", "call rule": "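Active if robust z is above 3.3 (negative regulators) or below -1.56, the Tlr4 control median (positive regulators); activity score 50 or more; control wells not called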", "calls": "active = hit (p65 shift raised or lowered); inactive = no clear change", "note": "The whole screen tested about 17,000 reagents; below is a random part of them. Over the whole deposit, 762 (4.5%) are marked active. 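Active calls include both raised and lowered p65 entry, mostly lowered; wells with fewer than 50 cells lack a z-score.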 Raw values are not corrected between plates."}
{"gene knocked down": "Entpd2 (ectonucleoside triphosphate diphosphohydrolase 2)", "p65 translocation robust z-score": 1.72, "nuclear/cytoplasmic p65 ratio, rep 1": 1.86, "nuclear/cytoplasmic p65 ratio, rep 2": 1.69, "low cell count flag": "enough cells to score", "outcome": "inactive"}
{"gene knocked down": "Mrc2 (mannose receptor, C type 2)", "nuclear/cytoplasmic p65 ratio, rep 1": 1.63, "nuclear/cytoplasmic p65 ratio, rep 2": 1.34, "low cell count flag": "fewer than 50 cells per well; well left out of scoring", "outcome": "inactive"}
{"gene knocked down": "Nt5c3b (5'-nucleotidase, cytosolic IIIB)", "p65 translocation robust z-score": 1.83, "nuclear/cytoplasmic p65 ratio, rep 1": 1.68, "nuclear/cytoplasmic p65 ratio, rep 2": 1.78, "low cell count flag": "enough cells to score", "outcome": "inactive"}
{"gene knocked down": "Or1f12 (olfactory receptor family 1 subfamily F member 12)", "p65 translocation robust z-score": 3.46, "nuclear/cytoplasmic p65 ratio, rep 1": 2, "nuclear/cytoplasmic p65 ratio, rep 2": 1.99, "low cell count flag": "enough cells to score", "outcome": "active"}
{"gene knocked down": "Gipc3 (GIPC PDZ domain containing family, member 3)", "p65 translocation robust z-score": 0.48, "nuclear/cytoplasmic p65 ratio, rep 1": 1.57, "nuclear/cytoplasmic p65 ratio, rep 2": 1.2, "low cell count flag": "enough cells to score", "outcome": "inactive"}
{"gene knocked down": "H4c16 (H4 histone 16)", "p65 translocation robust z-score": -0.1, "nuclear/cytoplasmic p65 ratio, rep 1": 1.71, "nuclear/cytoplasmic p65 ratio, rep 2": 1.46, "low cell count flag": "enough cells to score", "outcome": "inactive"}
{"gene knocked down": "Hoxa10 (homeobox A10)", "p65 translocation robust z-score": -0.17, "nuclear/cytoplasmic p65 ratio, rep 1": 1.41, "nuclear/cytoplasmic p65 ratio, rep 2": 1.36, "low cell count flag": "enough cells to score", "outcome": "inactive"}
{"gene knocked down": "Hp (haptoglobin)", "p65 translocation robust z-score": -0.07, "nuclear/cytoplasmic p65 ratio, rep 1": 1.37, "nuclear/cytoplasmic p65 ratio, rep 2": 1.42, "low cell count flag": "enough cells to score", "outcome": "inactive"}
{"gene knocked down": "Sf3b6 (splicing factor 3B, subunit 6)", "p65 translocation robust z-score": -0.43, "nuclear/cytoplasmic p65 ratio, rep 1": 1.52, "nuclear/cytoplasmic p65 ratio, rep 2": 1.35, "low cell count flag": "enough cells to score", "outcome": "inactive"}
{"gene knocked down": "Dppa5a (developmental pluripotency associated 5A)", "p65 translocation robust z-score": 1.66, "nuclear/cytoplasmic p65 ratio, rep 1": 1.69, "nuclear/cytoplasmic p65 ratio, rep 2": 1.58, "low cell count flag": "enough cells to score", "outcome": "inactive"}
{"gene knocked down": "Angptl2 (angiopoietin-like 2)", "p65 translocation robust z-score": 0.52, "nuclear/cytoplasmic p65 ratio, rep 1": 1.74, "nuclear/cytoplasmic p65 ratio, rep 2": 1.66, "low cell count flag": "enough cells to score", "outcome": "inactive"}
{"gene knocked down": "Etv3 (ets variant 3)", "p65 translocation robust z-score": 1.87, "nuclear/cytoplasmic p65 ratio, rep 1": 1.85, "nuclear/cytoplasmic p65 ratio, rep 2": 1.59, "low cell count flag": "enough cells to score", "outcome": "inactive"}
{"gene knocked down": "Rnf138 (ring finger protein 138)", "p65 translocation robust z-score": 0.52, "nuclear/cytoplasmic p65 ratio, rep 1": 1.49, "nuclear/cytoplasmic p65 ratio, rep 2": 1.34, "low cell count flag": "enough cells to score", "outcome": "inactive"}
{"gene knocked down": "Slk (STE20-like kinase)", "nuclear/cytoplasmic p65 ratio, rep 1": 2.21, "nuclear/cytoplasmic p65 ratio, rep 2": 2.03, "low cell count flag": "fewer than 50 cells per well; well left out of scoring", "outcome": "inactive"}
{"gene knocked down": "2900052L18Rik (RIKEN cDNA 2900052L18 gene)", "nuclear/cytoplasmic p65 ratio, rep 1": 1.12, "nuclear/cytoplasmic p65 ratio, rep 2": 0.789, "low cell count flag": "fewer than 50 cells per well; well left out of scoring", "outcome": "inactive"}
{"gene knocked down": "Ccdc120 (coiled-coil domain containing 120)", "p65 translocation robust z-score": -0.36, "nuclear/cytoplasmic p65 ratio, rep 1": 1.51, "nuclear/cytoplasmic p65 ratio, rep 2": 1.32, "low cell count flag": "enough cells to score", "outcome": "inactive"}
{"gene knocked down": "Washc2 (WASH complex subunit 2)", "p65 translocation robust z-score": -0.69, "nuclear/cytoplasmic p65 ratio, rep 1": 1.45, "nuclear/cytoplasmic p65 ratio, rep 2": 1.46, "low cell count flag": "enough cells to score", "outcome": "inactive"}
{"gene knocked down": "Tigd5 (tigger transposable element derived 5)", "p65 translocation robust z-score": -0.36, "nuclear/cytoplasmic p65 ratio, rep 1": 1.27, "nuclear/cytoplasmic p65 ratio, rep 2": 1.55, "low cell count flag": "enough cells to score", "outcome": "inactive"}
{"gene knocked down": "Pycr1 (pyrroline-5-carboxylate reductase 1)", "p65 translocation robust z-score": -0.4, "nuclear/cytoplasmic p65 ratio, rep 1": 1.55, "nuclear/cytoplasmic p65 ratio, rep 2": 1.38, "low cell count flag": "enough cells to score", "outcome": "inactive"}
{"gene knocked down": "Renbp (renin binding protein)", "p65 translocation robust z-score": -0.08, "nuclear/cytoplasmic p65 ratio, rep 1": 1.46, "nuclear/cytoplasmic p65 ratio, rep 2": 1.55, "low cell count flag": "enough cells to score", "outcome": "inactive"}
{"gene knocked down": "Tusc2 (tumor suppressor 2, mitochondrial calcium regulator)", "nuclear/cytoplasmic p65 ratio, rep 1": 1.46, "nuclear/cytoplasmic p65 ratio, rep 2": 1.23, "low cell count flag": "fewer than 50 cells per well; well left out of scoring", "outcome": "inactive"}
{"gene knocked down": "Ilk (integrin linked kinase)", "p65 translocation robust z-score": -0.19, "nuclear/cytoplasmic p65 ratio, rep 1": 1.6, "nuclear/cytoplasmic p65 ratio, rep 2": 1.4, "low cell count flag": "enough cells to score", "outcome": "inactive"}
{"gene knocked down": "Adam28 (a disintegrin and metallopeptidase domain 28)", "p65 translocation robust z-score": -0.39, "nuclear/cytoplasmic p65 ratio, rep 1": 1.52, "nuclear/cytoplasmic p65 ratio, rep 2": 1.6, "low cell count flag": "enough cells to score", "outcome": "inactive"}
{"gene knocked down": "G6pc3 (glucose 6 phosphatase, catalytic, 3)", "p65 translocation robust z-score": 0.6, "nuclear/cytoplasmic p65 ratio, rep 1": 1.47, "nuclear/cytoplasmic p65 ratio, rep 2": 1.49, "low cell count flag": "enough cells to score", "outcome": "inactive"}
{"gene knocked down": "Popdc2 (popeye domain containing 2)", "p65 translocation robust z-score": -0.26, "nuclear/cytoplasmic p65 ratio, rep 1": 1.31, "nuclear/cytoplasmic p65 ratio, rep 2": 1.22, "low cell count flag": "enough cells to score", "outcome": "inactive"}
{"gene knocked down": "Vamp1 (vesicle-associated membrane protein 1)", "p65 translocation robust z-score": -1.7, "nuclear/cytoplasmic p65 ratio, rep 1": 1.15, "nuclear/cytoplasmic p65 ratio, rep 2": 1.05, "low cell count flag": "enough cells to score", "outcome": "active"}
{"gene knocked down": "Tsc22d1 (TSC22 domain family, member 1)", "p65 translocation robust z-score": -1.21, "nuclear/cytoplasmic p65 ratio, rep 1": 1.4, "nuclear/cytoplasmic p65 ratio, rep 2": 1.29, "low cell count flag": "enough cells to score", "outcome": "inactive"}

Laid out differently: 2 of the entries above.
Hoxa10 (homeobox A10) | p65 translocation robust z-score = -0.17; nuclear/cytoplasmic p65 ratio, rep 1 = 1.41; nuclear/cytoplasmic p65 ratio, rep 2 = 1.36; low cell count flag = enough cells to score; outcome = inactive
Hp (haptoglobin) | p65 translocation robust z-score = -0.07; nuclear/cytoplasmic p65 ratio, rep 1 = 1.37; nuclear/cytoplasmic p65 ratio, rep 2 = 1.42; low cell count flag = enough cells to score; outcome = inactive
